Taken from: PubChem BioAssay AID1224829 (NIAID, 2016)
Aim: 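Secondary check of hits that alter LPS-induced p65 translocation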 (follow-up of hits). Cells: mouse RAW264.7 G9 macrophage reporter cells. Knock-down reagent: single siRNA against mouse genes, 100 nM. Time to read-out: 2 days of siRNA knock-down, then 40 min of LPS before fixing. Treatment: LPS (Salmonella minnesota R595) at 10 ng/ml. Read-out: 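High-content images after 40 min LPS exposure; GFP-p65 nucleus to surrounding ring signal ratio, normalised to plate median and non-targeting control wells, expressed as z-score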. Direction: p65 translocation z-score and gene median z-score, per vendor: higher = more nuclear NF-kappaB p65 after LPS. Hit rule: 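An siRNA is called active when the mean z-score of its two replicates is above 2 or below -2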. Meaning of the calls: active = changed p65 translocation (either direction); inactive = no clear change.
Here is an unselected part of about 3,800 deposited reagents. 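Calls cover raised and lowered translocation; gene median uses one vendor's three siRNAs; qiagen siRNAs acted more weakly than ambion siRNAs.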

The first 5 records as a preview:
gene	PubChem SID	siRNA vendor or control pool	p65 translocation z-score, replicate mean	p65 translocation z-score, replicate 1	p65 translocation z-score, replicate 2	gene median z-score, per vendor	Outcome
Nfe2 (nuclear factor, erythroid derived 2)	SID315484593	ambion single siRNA	0.509	-0.199	1.22	-0.779	inactive
Nfe2 (nuclear factor, erythroid derived 2)	SID315484594	ambion single siRNA	-4.51	-5.5	-3.52	-0.779	active
Nfe2 (nuclear factor, erythroid derived 2)	SID315484595	ambion single siRNA	-0.741	-1.36	-0.124	-0.779	inactive
Nfe2 (nuclear factor, erythroid derived 2)	SID315484596	qiagen single siRNA	4.77	3.81	5.73	1.57	active
Nfe2 (nuclear factor, erythroid derived 2)	SID315484597	qiagen single siRNA	0.0654	-0.511	0.642	1.57	inactive

The listing, repeating the preview:
gene	PubChem SID	siRNA vendor or control pool	p65 translocation z-score, replicate mean	p65 translocation z-score, replicate 1	p65 translocation z-score, replicate 2	gene median z-score, per vendor	Outcome
Nfe2 (nuclear factor, erythroid derived 2)	SID315484593	ambion single siRNA	0.509	-0.199	1.22	-0.779	inactive
Nfe2 (nuclear factor, erythroid derived 2)	SID315484594	ambion single siRNA	-4.51	-5.5	-3.52	-0.779	active
Nfe2 (nuclear factor, erythroid derived 2)	SID315484595	ambion single siRNA	-0.741	-1.36	-0.124	-0.779	inactive
Nfe2 (nuclear factor, erythroid derived 2)	SID315484596	qiagen single siRNA	4.77	3.81	5.73	1.57	active
Nfe2 (nuclear factor, erythroid derived 2)	SID315484597	qiagen single siRNA	0.0654	-0.511	0.642	1.57	inactive
Nfe2 (nuclear factor, erythroid derived 2)	SID315484598	qiagen single siRNA	1.57	1.18	1.96	1.57	inactive
Tnfrsf12a (tumor necrosis factor receptor superfamily, member 12a)	SID315485355	ambion single siRNA	-1.72	-0.972	-2.46	-2.14	inactive
Tnfrsf12a (tumor necrosis factor receptor superfamily, member 12a)	SID315485356	ambion single siRNA	-2.55	-3.04	-2.06	-2.14	active
Tnfrsf12a (tumor necrosis factor receptor superfamily, member 12a)	SID315485357	ambion single siRNA	-1.66	-1.1	-2.23	-2.14	inactive
Tnfrsf12a (tumor necrosis factor receptor superfamily, member 12a)	SID315485358	qiagen single siRNA	-4.46	-4.46		-2.99	active
Tnfrsf12a (tumor necrosis factor receptor superfamily, member 12a)	SID315485359	qiagen single siRNA	-2.41	-4.19	-0.633	-2.99	active
Tnfrsf12a (tumor necrosis factor receptor superfamily, member 12a)	SID315485360	qiagen single siRNA	-2.71	-2.99	-2.42	-2.99	active
Atg12 (autophagy related 12)	SID315486474	ambion single siRNA	-0.824	-0.0126	-1.64	-0.824	inactive
Atg12 (autophagy related 12)	SID315486475	ambion single siRNA	-2.46	-2.43	-2.49	-0.824	active
Atg12 (autophagy related 12)	SID315486476	ambion single siRNA	0.437	0.0164	0.858	-0.824	inactive
Atg12 (autophagy related 12)	SID315486477	qiagen single siRNA	1.88	0.473	3.29	-1.11	inactive
Atg12 (autophagy related 12)	SID315486478	qiagen single siRNA	-1.11	-1.01	-1.21	-1.11	inactive
Atg12 (autophagy related 12)	SID315486479	qiagen single siRNA	-2.14	-1.55	-2.73	-1.11	active
Trim9 (tripartite motif-containing 9)	SID315487347	ambion single siRNA	-0.54	-0.931	-0.149	2.19	inactive
Trim9 (tripartite motif-containing 9)	SID315487348	ambion single siRNA	5.85	7.16	4.54	2.19	active
Trim9 (tripartite motif-containing 9)	SID315487349	ambion single siRNA				2.19	inactive
Trim9 (tripartite motif-containing 9)	SID315487350	qiagen single siRNA	1.55	1.61	1.5	-2.43	inactive
Trim9 (tripartite motif-containing 9)	SID315487351	qiagen single siRNA	-2.81	-2.51	-3.11	-2.43	active
Trim9 (tripartite motif-containing 9)	SID315487352	qiagen single siRNA	-3.03	-2.35	-3.71	-2.43	active
Or5d39 (olfactory receptor family 5 subfamily D member 39)	SID315488592	ambion single siRNA	-1.18	-1	-1.36	-3.72	inactive
Or5d39 (olfactory receptor family 5 subfamily D member 39)	SID315488593	ambion single siRNA	-4.46	-4.54	-4.39	-3.72	active
Or5d39 (olfactory receptor family 5 subfamily D member 39)	SID315488594	ambion single siRNA	-3.72	-3.93	-3.51	-3.72	active
Or5d39 (olfactory receptor family 5 subfamily D member 39)	SID315488595	qiagen single siRNA	4.25	2.28	6.22	-0.372	active
Or5d39 (olfactory receptor family 5 subfamily D member 39)	SID315488596	qiagen single siRNA	-0.725	-0.123	-1.33	-0.372	inactive
Or5d39 (olfactory receptor family 5 subfamily D member 39)	SID315488597	qiagen single siRNA	-0.988	-1.36	-0.62	-0.372	inactive
Mrpl33 (mitochondrial ribosomal protein L33)	SID315486402	ambion single siRNA	0.257	-0.752	1.27	-1.43	inactive
Mrpl33 (mitochondrial ribosomal protein L33)	SID315486403	ambion single siRNA	-1.43	-0.896	-1.97	-1.43	inactive
Mrpl33 (mitochondrial ribosomal protein L33)	SID315486404	ambion single siRNA	-7.25	-7.96	-6.54	-1.43	active
Mrpl33 (mitochondrial ribosomal protein L33)	SID315486405	qiagen single siRNA	1.83	1.17	2.49	0.38	inactive
Mrpl33 (mitochondrial ribosomal protein L33)	SID315486406	qiagen single siRNA	-0.146	-1.86	1.57	0.38	inactive
Mrpl33 (mitochondrial ribosomal protein L33)	SID315486407	qiagen single siRNA	-0.88	-1.35	-0.411	0.38	inactive
Mthfsd (methenyltetrahydrofolate synthetase domain containing)	SID315488427	ambion single siRNA	-1.16	-0.911	-1.4	-0.301	inactive
Mthfsd (methenyltetrahydrofolate synthetase domain containing)	SID315488428	ambion single siRNA	-0.121	-0.951	0.71	-0.301	inactive
Mthfsd (methenyltetrahydrofolate synthetase domain containing)	SID315488429	ambion single siRNA	0.605	0.308	0.902	-0.301	inactive
Mthfsd (methenyltetrahydrofolate synthetase domain containing)	SID315488430	qiagen single siRNA	-2.56	-1.01	-4.11	0.0133	active
Mthfsd (methenyltetrahydrofolate synthetase domain containing)	SID315488431	qiagen single siRNA	1.23	0.577	1.89	0.0133	inactive
Mthfsd (methenyltetrahydrofolate synthetase domain containing)	SID315488432	qiagen single siRNA	0.0133	-0.243	0.269	0.0133	inactive
Kif23 (kinesin family member 23)	SID315486687	ambion single siRNA	-1.05	-1.05		-3.19	inactive
Kif23 (kinesin family member 23)	SID315486688	ambion single siRNA	-1.51	-3.19	0.177	-3.19	inactive
Kif23 (kinesin family member 23)	SID315486689	ambion single siRNA	-6.92	-8.99	-4.85	-3.19	active
Kif23 (kinesin family member 23)	SID315486690	qiagen single siRNA	-6.73	-6.73		-1.79	active
Kif23 (kinesin family member 23)	SID315486691	qiagen single siRNA	-0.682	0.634	-2	-1.79	inactive
Kif23 (kinesin family member 23)	SID315486692	qiagen single siRNA	-1.59	-1.59		-1.79	inactive
C9 (complement component 9)	SID315483849	ambion single siRNA	-4.17	-3.02	-5.32	-2.87	active
C9 (complement component 9)	SID315483850	ambion single siRNA	-0.955	-0.783	-1.13	-2.87	inactive
C9 (complement component 9)	SID315483851	ambion single siRNA	-3.5	-2.72	-4.29	-2.87	active
C9 (complement component 9)	SID315483852	qiagen single siRNA	1.45	2.06	0.836	0.836	inactive
C9 (complement component 9)	SID315483853	qiagen single siRNA	0.73	0.774	0.685	0.836	inactive
C9 (complement component 9)	SID315483854	qiagen single siRNA	0.947	0.947		0.836	inactive
